Measurements reported in PMC5515827.

Tests used:
[1] = target: Flag-tagged truncated VP2, conserved C-terminal domain 331-452aa (infectious bursal disease virus strain Lx); experiment: co-IP; HEK293T cells transfected with full-length pRK5-flag-vp2 (WT), truncated mutants or empty vector; lysates precipitated with anti-Flag monoclonal antibody, blotted with anti-ORAOV1 (endogenous ORAOV1)
[2] = target: Flag-tagged truncated VP2, hypervariable region 211-331aa (infectious bursal disease virus strain Lx); experiment: as above

B1: endogenous human ORAOV1 (protein, UniProt Q8WV07 1-137)
chain: MAGSQDIFDAIVMADERFHGEGYREGYEEGSSLGVMEGRQHGTLHGAKIGSEIGCYQGFAFAWKCLLHSCTTEKDSRKMKVLESLIGMIQKFPYDDPTYDKLHEDLDKIRGKFKQFCSLLNVQPDFKISAEGSGLSF
[1]
  binding: binds
[2]
  binding: binds

These are yes or no findings as the source states them, for the method shown. Binding seen in cells or lysates may run through a third protein. Binding calls can cover weak binding; strength is not graded here.
